Experimental data from PubChem BioAssay AID504594 (Broad Institute, 2011).
Several values for one entry are separate records, joined by “and”; a condition that tells them apart may be missing. Equal entries are not always repeated. The campaign covered roughly 2,000 compounds. Fewer than 10 were called active.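 How the source made its calls: active means growth inhibition of at least 75% in every replicate, which also brings the mean inhibition to 75% or more; inconclusive means mean inhibition 75% or more but some replicate under 75%; inactive means the rest.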 The list shows a part of the results.

experiment: reduced viability of yeast carrying PfHsp90 – S. cerevisiae, BacTiter-Glo luminescence, antimalarial PfHsp90 inhibitor project, primary screen (AID 504594);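 further: 0% = DMSO neutral control wells and 100% = 20 µM radicicol control wells; higher value means stronger growth inhibition because the sign is flipped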; conditions: S. cerevisiae expressing PfHsp90, BacTiter-Glo growth, 48 h; at 9.4 µM; stronger effect = higher value

Question: Which growth inhibition does the source give for `CC(=O)[C@H]1CC[C@H]2[C@@H]3CC[C@H]4C[C@H](O)CC[C@]4(C)[C@H]3C(=O)C[C@]12C` here?
Answer: inactive: -16.3%

Question: Which growth inhibition does the source give for `C[C@H]1CCCC(=O)CCCCCc2cc(O)cc(O)c2C(=O)O1` here?
Answer: inactive: -3.26%

Question: Which growth inhibition does the source give for `CN1C[C@H](CNC(=O)OCc2ccccc2)C[C@@H]2c3cccc4c3c(cn4C)C[C@H]21` here?
Answer: inactive: 3.46%

Question: Which growth inhibition does the source give for `O=C1NCCN2CCCC12` (stereo unspecified) here?
Answer: inactive: 8.78%

Question: For `OCc1cnc[nH]1`, which growth inhibition is on record?
Answer: inactive: -6.75%

Question: Which growth inhibition does the source give for `CCN(CC)C(=O)N[C@H]1C[C@@H]2c3cccc4[nH]cc(c34)C[C@H]2N(C)C1` here?
Answer: inactive: 12.2%

Question: With `CC12CN3CC(c4ccccc4)(CN(C1)C31CCCCC1)C2=O` as the compound, how does the growth inhibition read?
Answer: inactive: 3.67%

Question: For `CC[C@@H](CO)NC(=O)[C@@H]1C=C2c3cccc4c3c(cn4C)C[C@H]2N(C)C1`, which growth inhibition is on record?
Answer: inactive: -20.1%

Question: Which growth inhibition does the source give for `c1ccc2c(c1)OCC(C1=NCCN1)O2` (stereo unspecified) here?
Answer: inactive: 5.59%

Question: With `CC[N+]1(C)CCCC(OC(=O)C(O)(c2ccccc2)c2ccccc2)C1` (stereo unspecified) as the compound, how does the growth inhibition read?
Answer: inactive: -1.41%

Question: Which growth inhibition does the source give for `CCn1c(O)c(C(=O)CC2NCCc3ccccc32)c(=O)n(CC)c1=S` (stereo unspecified) here?
Answer: inactive: 4.65%

Question: With `C[N+]1(C)CCc2cc3c(cc2[C@H]1[C@@H]1OC(=O)c2c1ccc1c2OCO1)OCO3` as the compound, how does the growth inhibition read?
Answer: inactive: -13.2% and inactive: -2.04%

Question: For `O=c1c2ccccc2nc(/C=C/c2ccc3c(c2)OCO3)n1-c1ccccc1`, which growth inhibition is on record?
Answer: inactive: -7.08%

Question: Which growth inhibition does the source give for `C=C1CC[C@@]2(O)[C@H]3Cc4ccc(O)c5c4[C@@]2(CCN3CC2CC2)[C@H]1O5` here?
Answer: inactive: -2.05%

Question: Which growth inhibition does the source give for `O=C(CCCN1CCC2(CC1)C(=O)NCN2c1ccccc1)c1ccc(F)cc1` here?
Answer: inactive: 3.2%

Question: For `Cc1ccc(/C=C2/C(=O)NC(=O)N(C)C2=O)cc1`, which growth inhibition is on record?
Answer: inactive: 6.36%

Question: Which growth inhibition does the source give for `C=CC1CN2CCC1CC2[C@@H](OC(=O)c1ccc(OC)cc1)c1ccnc2ccccc12` (stereo partly specified) here?
Answer: inactive: 13.4%

Question: With `NCCc1c[nH]c2ccc(F)cc12` as the compound, how does the growth inhibition read?
Answer: inactive: -2.22%

Question: With `CCOC(=O)c1cncn1C(C)c1ccccc1` (stereo unspecified) as the compound, how does the growth inhibition read?
Answer: inactive: 6.7%

Question: With `c1cnc2c(c1)ccc1ncccc12` as the compound, how does the growth inhibition read?
Answer: inactive: -11.8%

Question: For `O=c1cccc2n1C[C@H]1C[C@@H]2CN2CCCC[C@@H]12`, which growth inhibition is on record?
Answer: inactive: -2.57%

Question: Which growth inhibition does the source give for `CCC1(c2ccccc2)C(=O)N(COC)C(=O)N(COC)C1=O` here?
Answer: inactive: -6.92%

Question: For `O=C1CC[C@@]2(O)[C@H]3Cc4ccc(O)c5c4[C@@]2(CCN3CC2CC2)[C@H]1O5`, which growth inhibition is on record?
Answer: inactive: 2.39%

Question: With `NCC1(c2ccc3c(c2)OCCO3)CCCC1` as the compound, how does the growth inhibition read?
Answer: inactive: 2.84%

Question: For `CN1C(=O)CN=C(c2ccc(Cl)cc2)c2cc(Cl)ccc21`, which growth inhibition is on record?
Answer: inactive: 5.49%

Question: Which growth inhibition does the source give for `O=c1c2ccccc2[se]n1-c1ccccc1` here?
Answer: inactive: 67.8%

Question: Which growth inhibition does the source give for `CC(C)(C)C(O)C(Oc1ccc(Cl)cc1)n1cncn1` (stereo unspecified) here?
Answer: active: 96.5%

Question: Which growth inhibition does the source give for `c1ccc2c(c1)Nc1ccccc1S2` here?
Answer: inactive: 0.934%

Question: With `C[N+]1(C)C2CCC1CC(OC(=O)C(CO)c1ccccc1)C2` (stereo unspecified) as the compound, how does the growth inhibition read?
Answer: inactive: -0.34%

Question: Which growth inhibition does the source give for `NCC(O)c1ccc(O)cc1` (stereo unspecified) here?
Answer: inactive: -11.1%

Question: Which growth inhibition does the source give for `C[C@H]1CC[C@@]2(C)[C@@H](CC[C@@H]3[C@@H]2CC[C@]2(C)[C@@H](O)CC[C@@H]32)C1` here?
Answer: inactive: 5.17%

Question: Which growth inhibition does the source give for `S=C1NCCN1` here?
Answer: inactive: -3.04%

Question: For `C[N+]1(C)[C@@H]2CC(OC(=O)[C@H](CO)c3ccccc3)C[C@H]1[C@@H]1O[C@@H]12` (stereo partly specified), which growth inhibition is on record?
Answer: inactive: -0.653% and inactive: 16.1%

Question: Which growth inhibition does the source give for `c1ccc(Cn2ccnc2)cc1` here?
Answer: inactive: -14.6%

Question: With `CC(C)C[C@H]1C(=O)N2CCCC2[C@]2(O)O[C@](NC(=O)[C@@H]3C=C4c5cccc6[nH]cc(c56)CC4N(C)C3)(C(C)C)C(=O)N12` (stereo partly specified) as the compound, how does the growth inhibition read?
Answer: inactive: 12.7%

Question: For `CC(C)[C@H]1C(=O)N2CCC[C@H]2[C@]2(O)O[C@](NC(=O)[C@@H]3C=C4c5cccc6[nH]cc(c56)C[C@H]4N(C)C3)(C(C)C)C(=O)N12`, which growth inhibition is on record?
Answer: inactive: 1.01%
